# Source: the supplement of paper PMC4635364
# Counter-ions that a name gives are not always drawn. Some of the results follow. Single values are uncertain here, since repeats match poorly.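 ReNCell VM, a human fetal ventral-midbrain neural progenitor line, was differentiated without mitogens. Blinded raters scored images stained for doublecortin (early neurons) or tyrosine hydroxylase (dopaminergic neurons) against untreated wells (0 = no change). Scores were averaged across repeats and both raters, and compounds averaging 2 or more were selected as hits for retesting.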
# How the values were obtained:
# ReNCell VM [1] = experiment: neuronal differentiation score (DCX+ cell fraction vs untreated, manual image score) (score (-3 to 3)); higher = more neuronal differentiation; settings: 2 uM, 2 weeks
# ReNCell VM [2] = experiment: dopaminergic neuron differentiation score (TH+ cell fraction vs untreated, manual image score) (score (0 to 3)); higher = more TH+ dopaminergic neuron differentiation; settings: 2 uM, 4 weeks, BDNF 10 ng/ml + GDNF 10 ng/ml
compound,measurement,setting,value
C(#CCN1CCCC1)CN1CCCC1 [Tremorine dihydrochloride],neuronal differentiation score,ReNCell VM [1]; library: Prestwick,inactive: 0
same,dopaminergic neuron differentiation score,ReNCell VM [2]; library: Prestwick,inactive: 0
O=c1ccc2[nH]cc(C3=CCNCC3)c2[nH]1,neuronal differentiation score,ReNCell VM [1]; library: Tocriscreen,inactive: 0
same,dopaminergic neuron differentiation score,ReNCell VM [2]; library: Tocriscreen,inactive: 0
C[N+]12CCC(CC1)C(OC(=O)C(O)(c1ccccc1)c1ccccc1)C2 (stereo unspecified),neuronal differentiation score,ReNCell VM [1]; library: Spectrum,inactive: 0
same,dopaminergic neuron differentiation score,ReNCell VM [2]; library: Spectrum,inactive: 1
C[C@@H]1CC[C@]2(NC1)O[C@H]1C[C@H]3[C@@H]4CC=C5C[C@@H](O)CC[C@]5(C)[C@H]4CC[C@]3(C)[C@H]1[C@@H]2C,neuronal differentiation score,ReNCell VM [1]; library: Spectrum,inactive: 0
same,dopaminergic neuron differentiation score,ReNCell VM [2]; library: Spectrum,inactive: 0
C[C@@H](CO)NC(=O)[C@@H]1C=C2c3cccc4[nH]cc(c34)C[C@H]2N(C)C1 [Ergobasine],neuronal differentiation score,ReNCell VM [1]; library: Phytochemical,inactive: 0
same,dopaminergic neuron differentiation score,ReNCell VM [2]; library: Phytochemical,inactive: 0
OC(Cc1ccncc1)C(Cl)(Cl)Cl (stereo unspecified),neuronal differentiation score,ReNCell VM [1]; library: Tocriscreen,inactive: 0
same,dopaminergic neuron differentiation score,ReNCell VM [2]; library: Tocriscreen,inactive: 0
COc1ccc2c(c1O)-c1cccc3c1[C@@H](C2)N(C)CC3 [R(-)-Apocodeine hydrochloride],neuronal differentiation score,ReNCell VM [1]; library: LOPAC,active: 2
same,dopaminergic neuron differentiation score,ReNCell VM [2]; library: LOPAC,inactive: 0
C=C1C[C@@H]2[C@H](CC[C@]3(C)C(=O)CC[C@@H]23)[C@@]2(C)C=CC(=O)C=C12,neuronal differentiation score,ReNCell VM [1]; library: Spectrum,inactive: 0
same,dopaminergic neuron differentiation score,ReNCell VM [2]; library: Spectrum,inactive: 0
C/C=C1\C[C@@H](C)[C@](O)(CO)C(=O)OCC2=CCN3CC[C@@H](OC1=O)[C@@H]23 [Retrorsine],neuronal differentiation score,ReNCell VM [1]; library: Phytochemical,inactive: 0
same,dopaminergic neuron differentiation score,ReNCell VM [2]; library: Phytochemical,inactive: 0
"CN1[C@@H]2CC[C@H]1C[C@@H](OC(=O)c1cc(Cl)cc(Cl)c1)C2 [3-Tropanyl-3,5-dichlorobenzoate]",neuronal differentiation score,ReNCell VM [1]; library: LOPAC,inactive: 0
same,dopaminergic neuron differentiation score,ReNCell VM [2]; library: LOPAC,inactive: 0
CN(C)CCc1ccc(O)cc1 [hordenine],neuronal differentiation score,ReNCell VM [1]; library: Natural,inactive: 0
same,dopaminergic neuron differentiation score,ReNCell VM [2]; library: Natural,inactive: 0
O=S1(=O)N(CCN2CC=C(c3c[nH]c4cc(F)ccc34)CC2)c2cccc3c2N1CCC3,neuronal differentiation score,ReNCell VM [1]; library: LOPAC,inactive: 0
same,dopaminergic neuron differentiation score,ReNCell VM [2]; library: LOPAC,inactive: 1
CC(=O)O[C@H]1[C@H]2[C@@H](OC(=O)Cc3ccccc3)[C@@H](C)C[C@]2(OC(C)=O)C(=O)/C(C)=C/[C@@H]2[C@H](CC[C@@]13CO3)C2(C)C [euphorbiasteroid],neuronal differentiation score,ReNCell VM [1]; library: Natural,inactive: 0
same,dopaminergic neuron differentiation score,ReNCell VM [2]; library: Natural,inactive: 0
CN(C)CCc1ccc(O)cc1 [Hordenine],neuronal differentiation score,ReNCell VM [1]; library: Phytochemical,inactive: 0
same,dopaminergic neuron differentiation score,ReNCell VM [2]; library: Phytochemical,inactive: 0
CC(=O)Nc1cc([As](=O)(O)O)ccc1O,neuronal differentiation score,ReNCell VM [1]; library: Spectrum,inactive: 0
same,dopaminergic neuron differentiation score,ReNCell VM [2]; library: Spectrum,inactive: 0
CCC1(C)CC(=O)NC(=O)C1 [Bemegride],neuronal differentiation score,ReNCell VM [1]; library: Prestwick,inactive: 1
same,dopaminergic neuron differentiation score,ReNCell VM [2]; library: Prestwick,inactive: 0
CC1CC(C)C(=O)C(C(O)CC2CC(=O)NC(=O)C2)C1 (stereo unspecified),neuronal differentiation score,ReNCell VM [1]; library: Natural,inactive: -1
same,dopaminergic neuron differentiation score,ReNCell VM [2]; library: Natural,inactive: 0
"CC(=O)N1CC[N+](C)(C)CC1 [4-Acetyl-1,1-dimethylpiperazinium iodide]",neuronal differentiation score,ReNCell VM [1]; library: Tocriscreen,inactive: 0
same,dopaminergic neuron differentiation score,ReNCell VM [2]; library: Tocriscreen,inactive: 0
NC1(c2ccccc2Cl)CCCCC1=O (stereo unspecified) [Norketamine hydrochloride],neuronal differentiation score,ReNCell VM [1]; library: Tocriscreen,inactive: 0
same,dopaminergic neuron differentiation score,ReNCell VM [2]; library: Tocriscreen,inactive: 0
C[C@@H]1O[C@@H](O[C@@H]2C=C3CC[C@@H]4[C@H](CC[C@]5(C)[C@@H](c6ccc(=O)oc6)CC[C@]45O)[C@@]3(C)CC2)[C@H](O)[C@H](O)[C@H]1O,neuronal differentiation score,ReNCell VM [1]; library: Spectrum,inactive: 0
same,dopaminergic neuron differentiation score,ReNCell VM [2]; library: Spectrum,inactive: 0
Cc1cc2c(C(C)C)c(O)c(O)c(C=O)c2c(O)c1-c1c(C)cc2c(C(C)C)c(O)c(O)c(C=O)c2c1O,neuronal differentiation score,ReNCell VM [1]; library: Spectrum,inactive: 0
same,dopaminergic neuron differentiation score,ReNCell VM [2]; library: Spectrum,inactive: 0
CCCCCCC(C)(C)c1ccc([C@@H]2C[C@H](O)CC[C@H]2CCCO)c(O)c1,neuronal differentiation score,ReNCell VM [1]; library: LOPAC,inactive: 0
same,dopaminergic neuron differentiation score,ReNCell VM [2]; library: LOPAC,inactive: 0
Oc1ccc2c3c1O[C@H]1c4oc5ccccc5c4C[C@@]4(O)[C@@H](C2)N(CC2CC2)CC[C@]314 [Naltriben methanesulfonate],neuronal differentiation score,ReNCell VM [1]; library: LOPAC,inactive: 0
same,dopaminergic neuron differentiation score,ReNCell VM [2]; library: LOPAC,inactive: 0
COc1cc([C@@H]2c3cc4c(c(O)c3C[C@H]3COC(=O)[C@@H]32)OCO4)cc(OC)c1OC [beta-PELTATIN],neuronal differentiation score,ReNCell VM [1]; library: Spectrum,inactive: 0
same,dopaminergic neuron differentiation score,ReNCell VM [2]; library: Spectrum,inactive: 0
CCCOc1ccc2[nH]cc(C3=CCNCC3)c2n1,neuronal differentiation score,ReNCell VM [1]; library: Tocriscreen,inactive: 0
same,dopaminergic neuron differentiation score,ReNCell VM [2]; library: Tocriscreen,inactive: 0
CN1[C@@H]2CC[C@H]1C[C@@H](OC(=O)C(CO)c1ccccc1)C2 (stereo partly specified) [Atropine sulfate],neuronal differentiation score,ReNCell VM [1]; library: LOPAC,inactive: 0
same,dopaminergic neuron differentiation score,ReNCell VM [2]; library: LOPAC,inactive: 0
Clc1ccc(C2=CCCC3CCC2N3)cn1 (stereo unspecified) [UB 165 fumarate],neuronal differentiation score,ReNCell VM [1]; library: Tocriscreen,inactive: 0
same,dopaminergic neuron differentiation score,ReNCell VM [2]; library: Tocriscreen,inactive: 0
NCCc1ccc(O)cc1 [Tyramin hydrochloride],neuronal differentiation score,ReNCell VM [1]; library: Phytochemical,inactive: 0
same,dopaminergic neuron differentiation score,ReNCell VM [2]; library: Phytochemical,inactive: 0
C=C[C@H]1CN2CC[C@H]1C[C@@H]2[C@@H](O)c1ccnc2ccccc12,neuronal differentiation score,ReNCell VM [1]; library: Spectrum,inactive: 0
same,dopaminergic neuron differentiation score,ReNCell VM [2]; library: Spectrum,inactive: 0
CO[C@H]1[C@H](O)[C@H](O[C@H]2CC[C@@]3(C=O)[C@H](CC[C@@H]4[C@@H]3CC[C@]3(C)[C@@H](C5=CC(=O)OC5)CC[C@]43O)C2)O[C@@H](C)[C@@H]1O,neuronal differentiation score,ReNCell VM [1]; library: Spectrum,inactive: 0
same,dopaminergic neuron differentiation score,ReNCell VM [2]; library: Spectrum,inactive: 0
O=C1C=CC[C@@H]2[C@H]3CCCN4CCC[C@@H](CN12)[C@@H]34 [sophocarpine],neuronal differentiation score,ReNCell VM [1]; library: Natural,inactive: 0
same,dopaminergic neuron differentiation score,ReNCell VM [2]; library: Natural,inactive: 0
CC1=C2[C@H]3OC(=O)[C@@H](C)[C@@H]3CC[C@@]2(C)C=CC1=O,neuronal differentiation score,ReNCell VM [1]; library: Spectrum,inactive: 0
same,dopaminergic neuron differentiation score,ReNCell VM [2]; library: Spectrum,inactive: 0
CCNCC(O)c1cccc(O)c1 (stereo unspecified) [Etilefrine hydrochloride],neuronal differentiation score,ReNCell VM [1]; library: Prestwick,inactive: 0
same,dopaminergic neuron differentiation score,ReNCell VM [2]; library: Prestwick,inactive: 0

# A second format for part of the listing above.
compound	measurement	setting	value
CC1CC(C)C(=O)C(C(O)CC2CC(=O)NC(=O)C2)C1 (stereo unspecified)	neuronal differentiation score	ReNCell VM [1]; library: Natural	inactive: -1
same	dopaminergic neuron differentiation score	ReNCell VM [2]; library: Natural	inactive: 0
